This assay has as its target mAChR M1 (UniProt P11229). The experiment in a line: mAChR M1 cell-based functional assay (calcium mobilization, potentiation of EC20 acetylcholine response). Particulars: for Emax: % ACh maximum at 30 μM; for EC50: CHO-K1 cells expressing mAChR M1, increase in EC20 acetylcholine response, >10 μM estimated where no plateau in the curve.

Protein sequences, listed by entry. Tags and fused reporters are not part of them.
UniProt P11229, whole entry: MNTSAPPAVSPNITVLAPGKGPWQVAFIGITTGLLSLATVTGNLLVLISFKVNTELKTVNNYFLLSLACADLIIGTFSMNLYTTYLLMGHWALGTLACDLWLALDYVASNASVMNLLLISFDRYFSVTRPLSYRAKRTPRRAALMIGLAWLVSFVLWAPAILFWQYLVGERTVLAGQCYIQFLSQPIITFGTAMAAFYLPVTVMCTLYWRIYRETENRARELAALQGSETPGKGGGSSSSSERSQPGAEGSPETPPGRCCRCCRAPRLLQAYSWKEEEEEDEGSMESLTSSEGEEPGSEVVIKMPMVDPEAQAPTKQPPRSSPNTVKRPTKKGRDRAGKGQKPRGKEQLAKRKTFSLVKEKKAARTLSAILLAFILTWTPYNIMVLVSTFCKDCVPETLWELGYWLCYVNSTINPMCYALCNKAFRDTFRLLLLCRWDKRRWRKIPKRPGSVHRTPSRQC

Structures were worked out from names or drawings and are uncertain.

Our source for the Emax and EC50 values is patent US9073935B2, “Substituted benzylspiroindolin-2-one analogs as positive allosteric modulators of the muscarinic acetylcholine receptor M1” (VANDERBILT UNIVERSITY, priority 2011, dated 2015).

As for `Cn1cc(-c2ccc(CN3C(=O)C4(CCN(C5CCCC5)C4)c4ccccc43)c(F)c2)cn1` (single isomer, unassigned) [B70], the Emax came to 37% and the EC50 was greater than 10 µM.

Take `Cn1cc(-c2ccc(CN3C(=O)C4(CCN(C5CCCC5)C4)c4ccccc43)c(F)c2)cn1` (single isomer, unassigned) [B6]: the Emax was 80% and the EC50 was 1.8 µM.

A word on the Emax: it is the greatest response seen or fitted, relative to the assay's reference. Usually EC50 stands for the concentration that produces a half-maximal response.
